Assay results reported in article doi:10.1101/2025.02.07.636106.
No constants are given. Whether binding was seen depends on the method and setting. For some of these results: In cells and extracts the contact can be indirect. Some binding calls cover weakened binding; strength is not graded here. For some of these results: Sequences can lack the tags named with a protein.

Sequences of proteins named here, by UniProt entry; tags and fusion partners are left off. Residues count along the entry.
UniProt O43747: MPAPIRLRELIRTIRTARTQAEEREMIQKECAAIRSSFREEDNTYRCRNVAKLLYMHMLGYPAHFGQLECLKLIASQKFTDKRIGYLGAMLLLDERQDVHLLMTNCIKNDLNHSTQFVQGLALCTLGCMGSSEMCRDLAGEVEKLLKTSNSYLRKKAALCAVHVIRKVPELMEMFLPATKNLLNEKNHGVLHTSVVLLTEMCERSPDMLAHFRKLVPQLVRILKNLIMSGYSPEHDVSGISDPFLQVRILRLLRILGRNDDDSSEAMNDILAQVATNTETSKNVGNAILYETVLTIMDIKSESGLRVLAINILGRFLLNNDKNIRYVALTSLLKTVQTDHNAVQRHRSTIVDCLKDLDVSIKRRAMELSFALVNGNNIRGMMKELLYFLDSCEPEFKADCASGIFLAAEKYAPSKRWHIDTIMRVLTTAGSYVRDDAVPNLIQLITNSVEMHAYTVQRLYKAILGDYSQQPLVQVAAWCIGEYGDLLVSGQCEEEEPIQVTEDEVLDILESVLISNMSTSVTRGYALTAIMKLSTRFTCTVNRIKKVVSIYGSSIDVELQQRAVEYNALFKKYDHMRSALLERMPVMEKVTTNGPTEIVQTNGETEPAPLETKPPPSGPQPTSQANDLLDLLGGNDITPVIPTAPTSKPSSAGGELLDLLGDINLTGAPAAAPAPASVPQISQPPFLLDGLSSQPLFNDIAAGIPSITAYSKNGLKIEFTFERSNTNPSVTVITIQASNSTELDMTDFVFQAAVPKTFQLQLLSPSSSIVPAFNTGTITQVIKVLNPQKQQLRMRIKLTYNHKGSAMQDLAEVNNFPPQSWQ
UniProt Q9P0T7, residues 21-183: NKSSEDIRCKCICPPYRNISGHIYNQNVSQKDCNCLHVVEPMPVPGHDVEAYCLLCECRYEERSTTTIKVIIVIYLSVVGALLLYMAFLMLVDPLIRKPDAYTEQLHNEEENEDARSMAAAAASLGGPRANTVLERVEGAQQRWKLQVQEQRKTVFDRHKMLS
UniProt P61966: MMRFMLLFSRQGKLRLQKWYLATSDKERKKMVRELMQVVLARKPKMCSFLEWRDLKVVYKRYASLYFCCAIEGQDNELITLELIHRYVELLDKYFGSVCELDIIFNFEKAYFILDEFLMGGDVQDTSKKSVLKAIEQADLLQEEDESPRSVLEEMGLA
UniProt Q15836: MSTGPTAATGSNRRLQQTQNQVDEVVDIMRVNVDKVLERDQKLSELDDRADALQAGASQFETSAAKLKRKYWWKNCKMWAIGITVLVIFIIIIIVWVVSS
UniProt P61006: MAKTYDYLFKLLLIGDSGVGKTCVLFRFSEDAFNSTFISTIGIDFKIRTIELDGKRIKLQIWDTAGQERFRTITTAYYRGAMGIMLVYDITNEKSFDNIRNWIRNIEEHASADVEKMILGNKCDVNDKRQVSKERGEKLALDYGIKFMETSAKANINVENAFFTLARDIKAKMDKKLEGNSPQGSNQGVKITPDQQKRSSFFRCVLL
UniProt P62491: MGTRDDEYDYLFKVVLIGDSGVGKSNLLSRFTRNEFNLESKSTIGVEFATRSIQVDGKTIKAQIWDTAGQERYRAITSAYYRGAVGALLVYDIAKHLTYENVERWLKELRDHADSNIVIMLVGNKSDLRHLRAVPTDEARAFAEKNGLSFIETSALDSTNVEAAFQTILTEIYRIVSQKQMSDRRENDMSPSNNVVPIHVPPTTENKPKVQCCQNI
UniProt P51793: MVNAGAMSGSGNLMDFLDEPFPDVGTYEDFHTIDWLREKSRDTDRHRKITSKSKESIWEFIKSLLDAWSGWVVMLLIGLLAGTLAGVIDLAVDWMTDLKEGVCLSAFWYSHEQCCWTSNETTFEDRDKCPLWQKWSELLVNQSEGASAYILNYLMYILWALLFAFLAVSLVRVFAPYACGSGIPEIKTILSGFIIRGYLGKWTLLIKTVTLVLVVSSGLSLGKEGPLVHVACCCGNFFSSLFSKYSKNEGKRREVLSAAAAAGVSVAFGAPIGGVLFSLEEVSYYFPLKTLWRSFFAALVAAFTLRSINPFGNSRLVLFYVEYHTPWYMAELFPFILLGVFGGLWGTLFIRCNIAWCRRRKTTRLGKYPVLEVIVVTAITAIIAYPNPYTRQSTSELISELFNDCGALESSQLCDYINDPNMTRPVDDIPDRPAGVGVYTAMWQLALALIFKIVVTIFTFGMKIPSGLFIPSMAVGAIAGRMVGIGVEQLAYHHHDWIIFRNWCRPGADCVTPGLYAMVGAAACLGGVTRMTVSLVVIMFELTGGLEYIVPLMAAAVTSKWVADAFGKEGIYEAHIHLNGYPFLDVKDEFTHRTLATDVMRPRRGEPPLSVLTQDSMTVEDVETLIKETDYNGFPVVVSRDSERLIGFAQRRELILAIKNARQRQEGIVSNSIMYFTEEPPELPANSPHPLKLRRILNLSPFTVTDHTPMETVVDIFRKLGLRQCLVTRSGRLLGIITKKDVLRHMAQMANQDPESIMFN
UniProt Q15811: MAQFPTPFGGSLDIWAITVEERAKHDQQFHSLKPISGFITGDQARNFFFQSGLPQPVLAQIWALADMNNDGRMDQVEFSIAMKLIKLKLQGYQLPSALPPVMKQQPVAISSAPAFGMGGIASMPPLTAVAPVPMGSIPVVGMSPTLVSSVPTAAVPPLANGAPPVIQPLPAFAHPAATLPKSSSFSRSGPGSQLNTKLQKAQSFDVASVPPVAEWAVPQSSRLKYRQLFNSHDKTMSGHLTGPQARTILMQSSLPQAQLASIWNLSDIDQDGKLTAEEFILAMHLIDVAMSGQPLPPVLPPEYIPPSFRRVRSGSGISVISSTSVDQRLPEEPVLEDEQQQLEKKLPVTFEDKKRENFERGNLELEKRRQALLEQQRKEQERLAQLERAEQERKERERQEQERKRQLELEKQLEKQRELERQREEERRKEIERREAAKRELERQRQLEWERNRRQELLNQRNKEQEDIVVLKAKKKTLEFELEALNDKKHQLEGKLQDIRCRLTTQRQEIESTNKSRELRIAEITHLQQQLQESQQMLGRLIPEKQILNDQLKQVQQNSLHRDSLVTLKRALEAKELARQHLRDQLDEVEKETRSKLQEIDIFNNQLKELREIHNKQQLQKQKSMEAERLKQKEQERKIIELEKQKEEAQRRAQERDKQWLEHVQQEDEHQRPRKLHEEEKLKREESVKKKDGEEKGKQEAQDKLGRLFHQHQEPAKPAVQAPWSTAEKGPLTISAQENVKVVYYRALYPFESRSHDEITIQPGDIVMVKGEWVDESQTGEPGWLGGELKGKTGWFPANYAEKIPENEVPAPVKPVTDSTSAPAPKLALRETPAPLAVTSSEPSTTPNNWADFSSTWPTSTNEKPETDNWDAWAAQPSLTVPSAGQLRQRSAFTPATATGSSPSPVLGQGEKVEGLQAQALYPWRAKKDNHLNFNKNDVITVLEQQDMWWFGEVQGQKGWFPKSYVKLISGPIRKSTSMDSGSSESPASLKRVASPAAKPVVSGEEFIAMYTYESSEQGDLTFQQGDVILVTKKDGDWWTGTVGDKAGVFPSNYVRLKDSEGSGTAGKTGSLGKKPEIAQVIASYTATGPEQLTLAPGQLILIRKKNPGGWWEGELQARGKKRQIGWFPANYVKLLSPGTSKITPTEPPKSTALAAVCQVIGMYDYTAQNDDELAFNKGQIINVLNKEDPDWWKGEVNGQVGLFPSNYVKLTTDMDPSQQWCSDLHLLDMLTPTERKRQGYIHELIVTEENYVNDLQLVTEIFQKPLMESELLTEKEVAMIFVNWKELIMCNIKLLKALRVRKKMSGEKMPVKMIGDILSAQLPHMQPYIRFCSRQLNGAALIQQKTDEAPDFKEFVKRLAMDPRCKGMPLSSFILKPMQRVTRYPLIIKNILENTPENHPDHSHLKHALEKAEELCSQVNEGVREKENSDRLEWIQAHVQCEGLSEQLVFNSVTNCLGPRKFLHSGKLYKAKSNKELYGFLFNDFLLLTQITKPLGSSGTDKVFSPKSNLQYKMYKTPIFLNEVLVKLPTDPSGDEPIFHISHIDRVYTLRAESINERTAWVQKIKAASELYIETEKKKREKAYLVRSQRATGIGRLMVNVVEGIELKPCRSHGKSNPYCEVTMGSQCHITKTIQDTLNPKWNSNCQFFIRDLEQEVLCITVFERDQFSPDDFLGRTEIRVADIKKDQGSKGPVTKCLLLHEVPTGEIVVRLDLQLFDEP
UniProt P63027: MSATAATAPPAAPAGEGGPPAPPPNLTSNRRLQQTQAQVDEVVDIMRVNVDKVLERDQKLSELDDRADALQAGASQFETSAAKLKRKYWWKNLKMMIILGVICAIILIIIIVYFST
UniProt Q96T51: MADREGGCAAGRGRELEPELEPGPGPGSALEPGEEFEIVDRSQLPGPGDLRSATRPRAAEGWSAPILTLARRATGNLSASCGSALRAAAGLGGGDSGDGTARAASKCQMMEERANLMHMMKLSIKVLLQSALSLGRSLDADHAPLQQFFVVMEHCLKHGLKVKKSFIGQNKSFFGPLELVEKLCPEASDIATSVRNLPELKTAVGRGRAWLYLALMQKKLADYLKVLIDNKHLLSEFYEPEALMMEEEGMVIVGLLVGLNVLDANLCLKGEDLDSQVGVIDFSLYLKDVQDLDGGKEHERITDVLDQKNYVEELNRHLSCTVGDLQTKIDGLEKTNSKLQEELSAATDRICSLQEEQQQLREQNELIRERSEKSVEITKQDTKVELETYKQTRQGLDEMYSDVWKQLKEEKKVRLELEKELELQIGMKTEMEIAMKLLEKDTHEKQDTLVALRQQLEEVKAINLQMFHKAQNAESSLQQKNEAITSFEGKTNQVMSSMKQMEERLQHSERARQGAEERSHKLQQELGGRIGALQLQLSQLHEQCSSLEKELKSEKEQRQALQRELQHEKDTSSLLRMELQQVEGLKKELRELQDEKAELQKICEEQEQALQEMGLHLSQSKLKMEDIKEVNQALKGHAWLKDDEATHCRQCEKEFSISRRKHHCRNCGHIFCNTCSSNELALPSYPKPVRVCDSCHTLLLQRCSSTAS
UniProt Q9NVJ2: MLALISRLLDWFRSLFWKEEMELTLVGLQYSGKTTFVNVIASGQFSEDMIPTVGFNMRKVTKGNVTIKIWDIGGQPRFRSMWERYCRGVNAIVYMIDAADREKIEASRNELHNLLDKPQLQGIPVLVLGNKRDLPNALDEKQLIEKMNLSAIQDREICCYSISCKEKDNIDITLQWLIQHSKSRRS

Key:
[1] = target: AP1G1 (human (endogenous in HEK293)) (UniProt O43747); assay: cross-linking; XL-MS: intact early endosomes purified by Endo-IP (FLAG-EEA1, HEK293EL, eluted without detergent) in KPBS, 1 mM DSSO, room temperature, 40 min; XlinkX, 5% FDR
[2] = target: T1, SCAMP1 (human (endogenous in HEK293)) (UniProt O15126); assay: as above
T1 sequence: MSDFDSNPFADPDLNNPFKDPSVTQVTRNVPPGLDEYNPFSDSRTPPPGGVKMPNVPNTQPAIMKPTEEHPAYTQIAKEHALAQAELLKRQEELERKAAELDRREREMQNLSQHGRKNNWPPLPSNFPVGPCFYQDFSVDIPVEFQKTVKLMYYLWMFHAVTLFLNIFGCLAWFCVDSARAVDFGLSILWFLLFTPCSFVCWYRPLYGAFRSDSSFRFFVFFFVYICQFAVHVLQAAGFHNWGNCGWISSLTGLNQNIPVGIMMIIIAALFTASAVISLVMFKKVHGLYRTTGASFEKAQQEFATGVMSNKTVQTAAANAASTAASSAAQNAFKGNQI

[3] = target: T2, SCAMP3 (human (endogenous in HEK293)) (UniProt O14828); assay: as above
T2 sequence: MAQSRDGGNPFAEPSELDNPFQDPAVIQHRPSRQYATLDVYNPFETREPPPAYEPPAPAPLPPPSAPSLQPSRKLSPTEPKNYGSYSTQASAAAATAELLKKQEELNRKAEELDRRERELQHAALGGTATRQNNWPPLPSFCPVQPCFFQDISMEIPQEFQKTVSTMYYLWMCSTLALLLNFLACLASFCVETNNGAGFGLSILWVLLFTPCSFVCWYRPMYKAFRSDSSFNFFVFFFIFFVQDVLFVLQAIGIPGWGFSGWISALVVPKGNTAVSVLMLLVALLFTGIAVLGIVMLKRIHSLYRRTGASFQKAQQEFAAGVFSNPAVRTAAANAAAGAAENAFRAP

[4] = target: T3, SYTL4 (human (endogenous in HEK293)) (UniProt Q96C24); assay: as above
T3 sequence: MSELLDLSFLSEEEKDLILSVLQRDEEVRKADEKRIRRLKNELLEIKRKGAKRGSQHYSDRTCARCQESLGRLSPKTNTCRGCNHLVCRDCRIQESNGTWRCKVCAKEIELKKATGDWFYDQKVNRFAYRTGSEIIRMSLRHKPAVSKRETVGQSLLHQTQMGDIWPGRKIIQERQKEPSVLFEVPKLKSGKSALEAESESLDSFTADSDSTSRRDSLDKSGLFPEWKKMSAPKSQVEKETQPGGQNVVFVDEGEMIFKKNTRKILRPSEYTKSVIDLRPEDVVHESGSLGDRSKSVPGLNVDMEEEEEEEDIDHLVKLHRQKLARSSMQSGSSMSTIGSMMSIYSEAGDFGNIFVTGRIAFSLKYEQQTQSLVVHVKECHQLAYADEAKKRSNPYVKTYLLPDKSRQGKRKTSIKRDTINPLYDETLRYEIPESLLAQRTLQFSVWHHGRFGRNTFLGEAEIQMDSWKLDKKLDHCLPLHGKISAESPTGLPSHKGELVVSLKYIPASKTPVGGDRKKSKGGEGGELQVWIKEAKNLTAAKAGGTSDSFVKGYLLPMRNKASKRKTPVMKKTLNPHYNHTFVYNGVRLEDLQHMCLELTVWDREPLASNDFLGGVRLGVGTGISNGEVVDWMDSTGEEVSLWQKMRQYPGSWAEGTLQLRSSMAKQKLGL

[5] = target: T4, SH3BP5 (human (endogenous in HEK293)) (UniProt O60239); assay: as above
T4 sequence: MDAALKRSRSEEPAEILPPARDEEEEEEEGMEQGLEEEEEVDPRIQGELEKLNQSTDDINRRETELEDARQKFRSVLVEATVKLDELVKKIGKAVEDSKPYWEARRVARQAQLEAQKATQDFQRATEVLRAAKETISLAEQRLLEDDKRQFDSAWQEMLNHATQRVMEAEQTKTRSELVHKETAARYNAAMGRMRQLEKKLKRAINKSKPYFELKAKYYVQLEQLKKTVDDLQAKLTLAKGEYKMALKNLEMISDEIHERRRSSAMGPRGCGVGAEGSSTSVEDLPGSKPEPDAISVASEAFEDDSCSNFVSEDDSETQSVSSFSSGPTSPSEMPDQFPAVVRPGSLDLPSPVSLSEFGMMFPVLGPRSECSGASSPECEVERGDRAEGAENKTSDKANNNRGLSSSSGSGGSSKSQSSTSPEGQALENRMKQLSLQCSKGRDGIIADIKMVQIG

[6] = target: T5, TMEM9B (human (endogenous in HEK293 and in H9-derived iNeurons)) (UniProt Q9NQ34); assay: native gel or EMSA; BN-MS: endosomal pellets (Endo-IP, HEK293EL) extracted with 0.5% DDM in KPBS, 4-16% NativePAGE at 4°C, 48 slices, DIA-MS; co-migration of elution profiles
T5 sequence: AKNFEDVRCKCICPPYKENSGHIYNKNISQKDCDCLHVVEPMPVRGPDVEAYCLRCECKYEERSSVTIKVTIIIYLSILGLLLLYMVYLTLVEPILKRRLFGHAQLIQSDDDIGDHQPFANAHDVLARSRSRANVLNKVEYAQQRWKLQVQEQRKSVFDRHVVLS

[7] = target: TMEM9 (human (endogenous in HEK293)) (UniProt Q9P0T7); assay: as above
[8] = target: T6, CLCN5-3xFlag (human) (UniProt P51795); assay: co-IP; HEK293 cells transfected for 48 h; extraction with 0.5% DDM, 25 mM HEPES pH 7.4, 150 mM NaCl; anti-HA or anti-Flag magnetic beads, 2 h, 4°C; immunoblot
T6 sequence: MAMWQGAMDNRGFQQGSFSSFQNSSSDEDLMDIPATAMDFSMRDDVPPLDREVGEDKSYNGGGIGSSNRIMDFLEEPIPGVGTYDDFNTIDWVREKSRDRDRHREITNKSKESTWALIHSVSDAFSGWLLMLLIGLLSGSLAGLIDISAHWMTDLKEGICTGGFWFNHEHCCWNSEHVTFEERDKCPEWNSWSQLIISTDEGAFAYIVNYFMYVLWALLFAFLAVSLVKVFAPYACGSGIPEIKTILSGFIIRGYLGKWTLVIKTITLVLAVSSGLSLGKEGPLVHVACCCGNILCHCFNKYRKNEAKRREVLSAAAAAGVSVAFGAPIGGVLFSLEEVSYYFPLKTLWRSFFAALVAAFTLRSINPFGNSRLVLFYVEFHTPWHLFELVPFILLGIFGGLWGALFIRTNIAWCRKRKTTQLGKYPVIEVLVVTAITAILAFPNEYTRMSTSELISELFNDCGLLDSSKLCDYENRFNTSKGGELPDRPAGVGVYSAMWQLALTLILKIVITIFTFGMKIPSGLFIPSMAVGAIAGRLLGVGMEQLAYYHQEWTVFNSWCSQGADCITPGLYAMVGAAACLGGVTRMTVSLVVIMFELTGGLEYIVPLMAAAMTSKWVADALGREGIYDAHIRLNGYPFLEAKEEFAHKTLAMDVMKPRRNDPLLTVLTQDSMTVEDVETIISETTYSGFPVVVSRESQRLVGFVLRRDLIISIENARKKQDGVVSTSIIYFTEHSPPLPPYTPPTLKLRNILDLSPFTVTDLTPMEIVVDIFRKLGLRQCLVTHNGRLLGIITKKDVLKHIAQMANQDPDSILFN

[9] = target: T7, EPS15L (human (endogenous in HEK293)) (UniProt Q9UBC2); assay: cross-linking; XL-MS: intact early endosomes purified by Endo-IP (FLAG-EEA1, HEK293EL, eluted without detergent) in KPBS, 1 mM DSSO, room temperature, 40 min; XlinkX, 5% FDR
T7 sequence: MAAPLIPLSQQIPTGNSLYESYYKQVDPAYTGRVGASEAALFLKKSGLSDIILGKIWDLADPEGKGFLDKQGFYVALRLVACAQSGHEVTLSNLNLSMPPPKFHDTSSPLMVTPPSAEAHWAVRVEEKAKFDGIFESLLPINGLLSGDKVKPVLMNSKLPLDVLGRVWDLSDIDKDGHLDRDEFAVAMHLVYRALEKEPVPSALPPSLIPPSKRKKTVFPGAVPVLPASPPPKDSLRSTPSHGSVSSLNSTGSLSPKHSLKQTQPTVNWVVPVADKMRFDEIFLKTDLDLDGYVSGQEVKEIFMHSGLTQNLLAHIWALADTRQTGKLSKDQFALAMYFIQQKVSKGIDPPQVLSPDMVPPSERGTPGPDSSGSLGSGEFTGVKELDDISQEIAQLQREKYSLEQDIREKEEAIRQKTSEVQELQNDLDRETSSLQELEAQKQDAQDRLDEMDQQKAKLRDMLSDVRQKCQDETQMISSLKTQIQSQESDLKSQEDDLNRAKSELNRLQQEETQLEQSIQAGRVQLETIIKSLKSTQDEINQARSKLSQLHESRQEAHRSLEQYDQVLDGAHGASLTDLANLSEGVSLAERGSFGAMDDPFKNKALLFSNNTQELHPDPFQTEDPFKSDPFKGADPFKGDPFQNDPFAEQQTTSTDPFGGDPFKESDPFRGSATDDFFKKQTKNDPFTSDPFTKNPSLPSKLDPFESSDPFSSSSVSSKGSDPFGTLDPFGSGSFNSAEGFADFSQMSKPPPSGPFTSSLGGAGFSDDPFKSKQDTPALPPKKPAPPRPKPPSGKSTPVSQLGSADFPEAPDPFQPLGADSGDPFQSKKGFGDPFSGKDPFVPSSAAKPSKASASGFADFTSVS

[10] = target: T8, RUFY2 (human (endogenous in HEK293)) (UniProt Q8WXA3); assay: as above
T8 sequence: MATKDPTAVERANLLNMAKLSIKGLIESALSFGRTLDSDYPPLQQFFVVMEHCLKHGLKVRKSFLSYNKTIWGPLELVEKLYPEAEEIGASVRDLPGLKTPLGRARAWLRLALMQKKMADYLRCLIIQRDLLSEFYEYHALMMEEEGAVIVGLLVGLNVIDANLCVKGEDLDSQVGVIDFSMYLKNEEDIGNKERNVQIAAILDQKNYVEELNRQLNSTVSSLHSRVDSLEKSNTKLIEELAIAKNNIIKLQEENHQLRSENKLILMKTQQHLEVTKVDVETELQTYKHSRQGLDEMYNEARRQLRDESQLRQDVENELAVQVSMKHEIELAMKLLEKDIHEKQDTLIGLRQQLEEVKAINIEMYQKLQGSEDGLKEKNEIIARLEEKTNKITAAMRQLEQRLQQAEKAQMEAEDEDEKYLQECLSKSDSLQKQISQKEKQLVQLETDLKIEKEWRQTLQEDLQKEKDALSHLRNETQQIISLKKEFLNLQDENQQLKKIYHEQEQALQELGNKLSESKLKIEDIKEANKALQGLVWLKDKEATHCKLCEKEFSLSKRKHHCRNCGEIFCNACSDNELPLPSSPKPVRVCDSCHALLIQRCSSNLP

In the case of AP1S1 (from UniProt P61966 1-158), the binding [1] is reported as “binds”.
With VAMP3 (from UniProt Q15836 1-100) the binding [2] was “binds” and the binding [3] was “binds”.
For RAB8A (from UniProt P61006 1-207), the binding [4] was “binds”.
In the case of RAB11A (from UniProt P62491 1-216), the binding [5] is reported as “binds”.
With CLCN4 (from UniProt P51793 1-760) the binding [6] was “binds” and the binding [7] was “binds”.
TMEM9-3xHA (from UniProt Q9P0T7 21-183) was tested, and the binding [8] was “binds”.
ITSN1 (from UniProt Q15811 1-1721) was tested, and the binding [9] was “binds”.
VAMP2 (from UniProt P63027 1-116) was tested, and the binding [2] was “binds” and the binding [3] was “binds”.
RUFY1 (from UniProt Q96T51 1-708) was tested, and the binding [10] was “binds”.
In the case of ARL8B (from UniProt Q9NVJ2 1-186), the binding [10] is reported as “binds”.
